Test results taken from US20250304918A1.
Results are given in words; binding and its absence hold for the method and conditions named. Some binding calls cover weakened binding; strength is not graded here.

By UniProt entry, the sequences of proteins in these tests, tags left out. Where a name states a change or a piece, a line headed by the entry shows the natural chain unless it says otherwise.
UniProt Q06432: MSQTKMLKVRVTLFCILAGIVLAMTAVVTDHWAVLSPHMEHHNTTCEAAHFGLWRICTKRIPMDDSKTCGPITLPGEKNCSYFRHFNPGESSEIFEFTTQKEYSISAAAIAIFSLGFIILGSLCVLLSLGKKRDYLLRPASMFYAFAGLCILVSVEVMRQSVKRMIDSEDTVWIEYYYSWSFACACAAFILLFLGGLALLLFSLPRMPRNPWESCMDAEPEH
UniProt O70578: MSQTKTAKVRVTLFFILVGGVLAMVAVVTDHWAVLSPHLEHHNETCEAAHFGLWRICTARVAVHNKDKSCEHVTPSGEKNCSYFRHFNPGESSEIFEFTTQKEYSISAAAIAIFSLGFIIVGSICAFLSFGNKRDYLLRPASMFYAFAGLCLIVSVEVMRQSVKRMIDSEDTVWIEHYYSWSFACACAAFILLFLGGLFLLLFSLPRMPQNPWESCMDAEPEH

Columns and labels:
[1] = biological target: human CACNG1 (Calcium Voltage-Gaged Auxiliary Subunit Gamma 1) (human) (UniProt Q06432); test: no binding assay described; descriptor in figure legend
mouse CACNG1 (mouse) [2] = biological target: mouse CACNG1 (mouse) (UniProt O70578); test: as above
[3] = biological target: human CACNG1 (Calcium Voltage-Gaged Auxiliary Subunit Gamma 1) (human) (UniProt Q06432); test: no binding assay described; definition of the label
mouse CACNG1 (mouse) [4] = biological target: mouse CACNG1 (mouse) (UniProt O70578); test: as above

Measured: binding

B1: CACNG1 mAb #2 (antibody, V domains shown)
VH: QVQLQQWGAGLLKPSATLSRTCAVYGGSFSGYYWNWIRQSPGKGLEWIGEILHSGRTNYNPSLKSRVTISVDTSKNQFSLKLTSVTAADTAVYYCAGRIAARHGWFDPWGQGTLVTVSS
VL: DIQMTQSPSSVSTSVGDRVTISCRASQDIRKWLAWYQQKPGKAPKLLIYATSSLQSGVPSRFSGSGSGTDFTLTISSLQPEDFATYFCQQANSFPFTFGQGTKLEIK
binds: all assays above

B2: CACNG1 mAb #4 (antibody, V domains shown)
VH: QVQLQESGPGLVKPSETLSLTCTVSGDSINNYYWTWLRQPPGKGLEWIGYIYYSGSANYNPSLKSRVTISVDTSKNQFSLKLNSVTAADTAVYYCARGAVKYFRHWGQGTLVTVSS
VL: EIVLTQSPGTLSLSPGERATLSCRASQTINHNNLAWYQQRPGQAPRLLIYGASNRATAIPDRFSGSGSGTDFTLTISRLEPEDFEVYSCQQYGSLPLTFGGGTKVEIK
binds: [3] | mouse CACNG1 (mouse) [4]
